No constants are given. Whether binding was seen depends on the method and setting. Binding can be weak; no strength is given. Blank lines part the entries; values can stand above or below the binder they belong to.
Biological target: D. rerio NCBD (nuclear coactivator binding domain of CBP), Trp variant (D. rerio)
Test: stopped-flow spectroscopy; Trp variant of NCBD mixed with CID at varied concentration; kon from the slope of kobs, koff from displacement with excess wild-type NCBD, Kd = koff/kon; 20 mM sodium phosphate pH 7.40, 150 mM NaCl, 4 °C; both purified

B1: D. rerio NCOA1 N-CID-C (CID with N- and C-terminal flanking regions) (domain or fragment)
chain: GSEPMTFDNSLANQTQAPLSSPQEQCVPCPLDEMLCPPTTPEGRNDEKALLEQLVTFLSHTDESELAELDRALGIDKIVQSGCLEPVTQTPFPQSQPPTPVPLDPKLPSYPSQFPTSPSQFP
binding: binds

Binder: GPGSASEGPADEGALLSQLYSALKDFDGLEEIDRALGIPALVGQAQ (domain or fragment) [D. rerio NCOA2 CID (minimal region)]
binding: binds

Binder: GSEGRNDEKALLEQLVTFLSHTDESELAELDRALGIDKIVQSGC (domain or fragment) [D. rerio NCOA1 CID (minimal region)]
binding: binds

Further lines, results first:

binding: binds
Binder: GSEGQSDERALLDQLDSLLNNTDVIALEEIDRALGIPDLINQGH (domain or fragment) [D. rerio NCOA3 CID (minimal region)]

binding: binds
B2: D. rerio NCOA2 N-CID-C (CID with N- and C-terminal flanking regions) (domain or fragment)
chain: GPGSPPNQTAPWPDSVMPIEPVPFGNQSSSMYGGSQEDVLCPPASEGPADEGALLSQLYSALKDFDGLEEIDRALGIPALVGQAQPVEQDQFPGQDPSMMMDQKPPMYGQQQYASSPANMQQAG

binding: binds
B3: D. rerio NCOA3 N-CID-C (CID with N- and C-terminal flanking regions) (domain or fragment)
chain: GSPPQSPSWPDSGMGMEGPPSANRLPINSPLDELLAPPSTSEGQSDERALLDQLDSLLNNTDVIALEEIDRALGIPDLINQGHSSDQPPPSDPFSGPCLGPDSSMGMEPPKAMYGQGYPGPP

Reference: article PMC10515491, “Intrinsically Disordered Flanking Regions Increase the Affinity of a Transcriptional Coactivator Interaction across Vertebrates” (Biochemistry, 2023)
